Experimental data published in the supplement of paper PMC7666118.
The other results are listed elsewhere or left out.

The chains behind the UniProt entries cited, without tags or fusion partners. Where a name states a change or a piece, a line headed by the entry shows the natural chain unless it says otherwise.
UniProt Q15831: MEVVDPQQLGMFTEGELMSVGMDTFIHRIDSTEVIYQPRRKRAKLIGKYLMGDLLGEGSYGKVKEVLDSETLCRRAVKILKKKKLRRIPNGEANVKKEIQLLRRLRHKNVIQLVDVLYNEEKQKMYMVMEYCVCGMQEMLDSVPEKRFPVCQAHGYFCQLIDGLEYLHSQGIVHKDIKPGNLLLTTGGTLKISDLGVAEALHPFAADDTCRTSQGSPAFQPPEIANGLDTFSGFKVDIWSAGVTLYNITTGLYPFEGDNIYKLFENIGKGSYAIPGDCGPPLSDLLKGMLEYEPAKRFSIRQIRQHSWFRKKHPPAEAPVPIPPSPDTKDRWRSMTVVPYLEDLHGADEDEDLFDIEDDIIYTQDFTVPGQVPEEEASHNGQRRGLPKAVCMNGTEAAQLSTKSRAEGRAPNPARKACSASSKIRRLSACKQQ
UniProt Q86TM6, whole entry: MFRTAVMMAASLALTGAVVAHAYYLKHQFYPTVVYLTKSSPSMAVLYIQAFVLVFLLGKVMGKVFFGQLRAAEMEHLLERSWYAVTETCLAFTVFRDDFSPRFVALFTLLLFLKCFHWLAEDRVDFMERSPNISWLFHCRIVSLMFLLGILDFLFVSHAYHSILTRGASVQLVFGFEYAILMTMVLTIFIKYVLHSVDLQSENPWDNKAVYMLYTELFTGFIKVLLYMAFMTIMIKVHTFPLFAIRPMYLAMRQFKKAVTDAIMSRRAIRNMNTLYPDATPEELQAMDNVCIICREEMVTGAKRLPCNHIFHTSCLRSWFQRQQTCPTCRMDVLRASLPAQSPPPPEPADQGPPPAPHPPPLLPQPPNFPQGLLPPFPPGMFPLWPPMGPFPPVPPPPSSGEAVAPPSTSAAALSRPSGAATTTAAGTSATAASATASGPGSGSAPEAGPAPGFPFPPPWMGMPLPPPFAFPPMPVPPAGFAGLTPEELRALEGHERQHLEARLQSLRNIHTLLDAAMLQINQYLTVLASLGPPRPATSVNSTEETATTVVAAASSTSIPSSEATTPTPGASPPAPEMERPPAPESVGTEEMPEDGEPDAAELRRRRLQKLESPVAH
UniProt Q9NUL3: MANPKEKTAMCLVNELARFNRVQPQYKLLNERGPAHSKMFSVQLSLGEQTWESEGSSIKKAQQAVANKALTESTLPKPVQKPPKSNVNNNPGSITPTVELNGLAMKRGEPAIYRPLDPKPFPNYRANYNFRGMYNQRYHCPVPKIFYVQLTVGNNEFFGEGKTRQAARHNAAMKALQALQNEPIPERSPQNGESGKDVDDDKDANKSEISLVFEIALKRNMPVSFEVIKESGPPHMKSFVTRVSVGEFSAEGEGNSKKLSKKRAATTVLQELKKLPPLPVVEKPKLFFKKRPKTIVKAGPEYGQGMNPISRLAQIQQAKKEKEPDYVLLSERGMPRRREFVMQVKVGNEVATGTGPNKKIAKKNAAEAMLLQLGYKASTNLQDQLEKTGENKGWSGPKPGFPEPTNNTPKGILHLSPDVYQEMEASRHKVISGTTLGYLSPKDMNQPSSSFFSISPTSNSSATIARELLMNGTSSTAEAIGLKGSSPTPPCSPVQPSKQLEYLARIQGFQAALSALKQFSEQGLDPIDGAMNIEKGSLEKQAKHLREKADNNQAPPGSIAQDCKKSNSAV
UniProt Q7L7X3: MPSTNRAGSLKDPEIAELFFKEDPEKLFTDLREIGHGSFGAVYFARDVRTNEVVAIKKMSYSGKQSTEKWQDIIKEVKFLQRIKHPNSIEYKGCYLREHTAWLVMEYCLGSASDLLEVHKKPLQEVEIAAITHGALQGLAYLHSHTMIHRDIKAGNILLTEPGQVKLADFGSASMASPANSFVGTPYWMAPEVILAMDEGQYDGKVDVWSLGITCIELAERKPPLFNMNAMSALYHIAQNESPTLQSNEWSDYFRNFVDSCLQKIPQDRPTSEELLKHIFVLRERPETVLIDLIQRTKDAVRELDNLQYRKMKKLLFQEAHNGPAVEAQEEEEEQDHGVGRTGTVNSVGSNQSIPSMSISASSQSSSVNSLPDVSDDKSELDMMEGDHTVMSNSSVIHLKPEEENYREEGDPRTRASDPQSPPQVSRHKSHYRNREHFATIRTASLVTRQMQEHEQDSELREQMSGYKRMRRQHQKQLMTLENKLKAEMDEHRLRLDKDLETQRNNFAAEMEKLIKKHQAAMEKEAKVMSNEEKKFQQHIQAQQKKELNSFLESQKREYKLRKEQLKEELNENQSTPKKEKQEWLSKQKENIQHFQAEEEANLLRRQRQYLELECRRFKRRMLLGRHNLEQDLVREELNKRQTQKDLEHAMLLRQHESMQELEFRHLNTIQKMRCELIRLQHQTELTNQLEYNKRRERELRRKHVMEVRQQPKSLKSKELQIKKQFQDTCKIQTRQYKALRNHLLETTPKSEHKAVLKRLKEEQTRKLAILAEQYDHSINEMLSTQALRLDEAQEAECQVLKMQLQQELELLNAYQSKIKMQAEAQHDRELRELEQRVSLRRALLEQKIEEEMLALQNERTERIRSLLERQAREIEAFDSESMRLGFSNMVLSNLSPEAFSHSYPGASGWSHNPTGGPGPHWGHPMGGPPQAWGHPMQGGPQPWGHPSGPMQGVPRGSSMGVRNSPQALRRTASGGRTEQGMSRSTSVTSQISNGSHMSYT
UniProt Q13277: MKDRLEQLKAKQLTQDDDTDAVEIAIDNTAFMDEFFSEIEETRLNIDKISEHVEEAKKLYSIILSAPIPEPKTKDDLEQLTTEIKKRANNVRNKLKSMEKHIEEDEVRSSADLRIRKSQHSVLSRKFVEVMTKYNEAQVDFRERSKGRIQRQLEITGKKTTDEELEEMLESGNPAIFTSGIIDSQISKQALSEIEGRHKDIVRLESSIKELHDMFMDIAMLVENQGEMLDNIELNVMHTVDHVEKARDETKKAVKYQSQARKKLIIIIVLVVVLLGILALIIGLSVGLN
UniProt P16150: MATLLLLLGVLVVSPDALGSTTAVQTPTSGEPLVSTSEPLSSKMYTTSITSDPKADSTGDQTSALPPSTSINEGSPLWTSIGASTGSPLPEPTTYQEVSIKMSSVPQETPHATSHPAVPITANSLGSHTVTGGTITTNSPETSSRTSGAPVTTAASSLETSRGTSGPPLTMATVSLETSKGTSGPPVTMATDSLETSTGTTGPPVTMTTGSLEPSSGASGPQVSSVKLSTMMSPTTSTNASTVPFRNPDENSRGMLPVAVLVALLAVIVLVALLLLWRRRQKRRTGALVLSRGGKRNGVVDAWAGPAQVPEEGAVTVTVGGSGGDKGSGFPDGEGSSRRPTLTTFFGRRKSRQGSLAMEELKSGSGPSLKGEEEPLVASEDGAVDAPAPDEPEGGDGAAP
UniProt P46977: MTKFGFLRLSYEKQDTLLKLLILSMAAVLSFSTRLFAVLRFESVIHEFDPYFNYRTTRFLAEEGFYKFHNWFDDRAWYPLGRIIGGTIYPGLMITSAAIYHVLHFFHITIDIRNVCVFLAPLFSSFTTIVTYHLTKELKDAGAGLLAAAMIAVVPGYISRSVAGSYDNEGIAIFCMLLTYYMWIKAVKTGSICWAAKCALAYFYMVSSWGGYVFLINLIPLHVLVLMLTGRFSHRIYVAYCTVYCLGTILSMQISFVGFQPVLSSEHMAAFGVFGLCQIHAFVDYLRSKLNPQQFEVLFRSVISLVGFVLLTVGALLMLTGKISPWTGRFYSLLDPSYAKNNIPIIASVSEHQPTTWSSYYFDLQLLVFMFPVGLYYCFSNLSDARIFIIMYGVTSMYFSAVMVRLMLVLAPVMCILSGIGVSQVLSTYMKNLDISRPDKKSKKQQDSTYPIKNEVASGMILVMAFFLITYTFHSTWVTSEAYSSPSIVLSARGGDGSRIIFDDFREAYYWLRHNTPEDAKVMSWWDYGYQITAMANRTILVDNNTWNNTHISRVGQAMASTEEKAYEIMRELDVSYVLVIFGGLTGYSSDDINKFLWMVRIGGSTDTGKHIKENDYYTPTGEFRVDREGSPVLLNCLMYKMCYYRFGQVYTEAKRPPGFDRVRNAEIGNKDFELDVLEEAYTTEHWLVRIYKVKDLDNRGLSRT
UniProt O94804: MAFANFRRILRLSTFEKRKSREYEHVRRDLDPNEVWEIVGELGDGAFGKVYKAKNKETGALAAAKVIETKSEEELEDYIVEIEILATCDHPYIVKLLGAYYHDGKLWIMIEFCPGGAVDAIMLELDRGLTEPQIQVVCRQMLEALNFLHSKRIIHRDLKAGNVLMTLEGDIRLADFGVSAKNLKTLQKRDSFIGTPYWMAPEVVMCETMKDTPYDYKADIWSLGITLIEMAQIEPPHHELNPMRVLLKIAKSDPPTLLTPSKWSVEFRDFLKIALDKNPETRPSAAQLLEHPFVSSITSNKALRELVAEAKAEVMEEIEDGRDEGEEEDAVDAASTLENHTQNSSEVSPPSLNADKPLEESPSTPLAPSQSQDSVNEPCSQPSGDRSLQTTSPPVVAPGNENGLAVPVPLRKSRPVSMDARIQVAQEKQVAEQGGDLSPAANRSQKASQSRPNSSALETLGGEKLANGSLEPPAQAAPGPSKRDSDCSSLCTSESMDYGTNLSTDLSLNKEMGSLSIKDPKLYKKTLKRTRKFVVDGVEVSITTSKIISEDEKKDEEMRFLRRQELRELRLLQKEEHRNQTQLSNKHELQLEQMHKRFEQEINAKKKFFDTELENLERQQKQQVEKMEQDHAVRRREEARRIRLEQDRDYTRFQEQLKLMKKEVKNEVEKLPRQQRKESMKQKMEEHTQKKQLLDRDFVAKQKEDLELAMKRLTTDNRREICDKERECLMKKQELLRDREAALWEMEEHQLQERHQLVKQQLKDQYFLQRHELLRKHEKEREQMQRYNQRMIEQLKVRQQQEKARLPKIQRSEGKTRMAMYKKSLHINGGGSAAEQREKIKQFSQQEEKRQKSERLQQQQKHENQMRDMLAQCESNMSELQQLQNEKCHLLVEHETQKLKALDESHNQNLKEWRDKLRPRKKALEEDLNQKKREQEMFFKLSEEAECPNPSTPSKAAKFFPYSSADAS
UniProt Q13148, whole entry: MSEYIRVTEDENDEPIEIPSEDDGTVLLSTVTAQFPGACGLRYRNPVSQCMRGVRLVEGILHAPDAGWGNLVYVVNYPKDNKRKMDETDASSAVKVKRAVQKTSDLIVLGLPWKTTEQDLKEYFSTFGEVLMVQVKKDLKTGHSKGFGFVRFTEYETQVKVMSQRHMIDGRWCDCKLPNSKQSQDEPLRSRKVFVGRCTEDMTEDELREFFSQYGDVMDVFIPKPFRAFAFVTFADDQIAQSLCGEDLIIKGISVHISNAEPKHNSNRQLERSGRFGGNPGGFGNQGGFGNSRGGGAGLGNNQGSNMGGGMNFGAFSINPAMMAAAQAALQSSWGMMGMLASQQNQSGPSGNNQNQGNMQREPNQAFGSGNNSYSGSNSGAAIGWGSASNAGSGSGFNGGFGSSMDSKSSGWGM

compound: COc1ccc(Cn2ccc3cc(C)c(C(=O)NO)cc32)cc1; experiment: dose-dependent thermal stabilisation call (2D-TPP, DLPTP, 10% FDR) (binary (1 = stabilised)); higher = stabilised by the compound; details: system: HL-60 intact cells; concentration range 0.04-10 µM
Method: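 2D thermal proteome profiling in intact HL-60 cells treated with BRD-3811 (0, 0.04, 0.29, 2, 10 uM) for 90 min at 37 C, then heated 3 min at one of 12 temperatures (42-63.9 C). Soluble protein was quantified by TMT10 MS. The value is the DLPTP call of the paper: dose-dependent thermal stabilisation over all temperatures at 10% FDR (F-test of a dose-response against a flat model); one experiment, one call per tested protein.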

Target	dose-dependent thermal stabilisation call
STK11 (UniProt Q15831)	inactive: 0
SYVN1 (UniProt Q86TM6)	inactive: 0
STAU2 (UniProt Q9NUL3)	inactive: 0
TAOK1 (UniProt Q7L7X3)	inactive: 0
STX3 (UniProt Q13277)	inactive: 0
SPN (UniProt P16150)	inactive: 0
STT3A (UniProt P46977)	inactive: 0
STK10 (UniProt O94804)	inactive: 0
TARDBP (UniProt Q13148)	inactive: 0
